According to patent US10421778B2 (WASHINGTON UNIVERSITY, priority 2015, dated 2019):

Experiments:
[1] = general procedure: solution-phase peptide synthesis; mixed anhydride; HATU; EDCl; DPPA (macrolactamization)
[2] = peptide synthesis; settings: late stage modification step
[3] = late stage modification step, LC-MS

Boc-Acp-Leu-Gly-Lys(Ac)-Cumarin Tetrapeptide
step yield ([1]; coupling step): yield: 85%

Boc-Asp(Pro-^DPro-Val-O^tBu)-OBn
step yield ([1]; coupling step): yield: 73%

Boc-Asp(^DPro-Pro-Val-O^tBu)-OBn
step yield ([1]; coupling step): yield: 75%

Boc-^DAsp(Pro-^DPro-Val-O^tBu)-OBn
step yield ([1]; coupling step): yield: 66%

Boc-^DAsp(^DPro-Pro-Val-O^tBu)-OBn
step yield ([1]; coupling step): yield: 77%

Cyclo-Asp(Pro-^DPro-Val)-NHCH2CH2CH2CONHOH
final LC-MS purity [2]: 99%
step yield [2]: 86%

Cyclo-Asp(Pro-^DPro-Val)-NHCH2CH2CH2COOH
final LC-MS purity [2]: >99%
step yield [2]: 93%

Cyclo-Asp(Pro-^DPro-Val)-NHCH2CH2CH2COOMe
final LC-MS purity [2]: 98%
step yield [2]: 86%

Cyclo-Asp(Pro-^DPro-Val)-NHCH2CH2CH2S(═O)2CH3
final LC-MS purity [2]: >99%
step yield [2]: 89%

Cyclo-Asp(Pro-^DPro-Val)-NHCH2CH2CH2SCH3
final LC-MS purity [2]: 97%
step yield [2]: 70%

Cyclo-Asp(Pro-^DPro-Val)-NHCH2CH2CH2SH
step yield ([1]; late stage modification step): 88%
purity (crude or final not stated) [1, 3]: >99%

Cyclo-Asp(Pro-^DPro-Val)-NHCH2CH2SH
step yield ([1]; late stage modification step): 74%
purity (crude or final not stated) [1, 3]: >99%

Cyclo-Asp(Pro-^DPro-Val)-NHCH2CH2S—SCH2CH2NH2
step yield ([1]; late stage modification step): 69%
final LC-MS purity [1, 3]: 96%

Cyclo-Asp(Pro-^DPro-Val)-OBn
cyclisation yield ([1]; cyclisation step): 67%
final LC-MS purity ([1]; cyclisation step, LC-MS): >97%

Cyclo-Asp(Pro-^DPro-Val)-OH
step yield ([1]; late stage modification step): 94%
purity (crude or final not stated) [1, 3]: >99%

Cyclo-Asp(^DPro-Pro-Val)-NHCH2CH2CH2CONHOH
final LC-MS purity [2]: >99%
step yield [2]: 87%

Cyclo-Asp(^DPro-Pro-Val)-NHCH2CH2CH2COOH
final LC-MS purity [2]: >99%
step yield [2]: 94%

Cyclo-Asp(^DPro-Pro-Val)-NHCH2CH2CH2COOMe
final LC-MS purity [2]: >99%
step yield [2]: 86%

Cyclo-Asp(^DPro-Pro-Val)-NHCH2CH2CH2OH
step yield ([1]; late stage modification step): 60%
final LC-MS purity [1, 3]: >97%

Cyclo-Asp(^DPro-Pro-Val)-NHCH2CH2CH2S(═O)2CH3
final LC-MS purity [2]: >99%
step yield [2]: 83%

Cyclo-Asp(^DPro-Pro-Val)-NHCH2CH2CH2SCH3
final LC-MS purity [2]: >99%
step yield [2]: yield, 68%

Cyclo-Asp(^DPro-Pro-Val)-NHCH2CH2CH2SH
step yield ([1]; late stage modification step): yield, 79%
final LC-MS purity [1, 3]: >99%

Cyclo-Asp(^DPro-Pro-Val)-NHCH2CH2SH
step yield ([1]; late stage modification step): yield, 87%
final LC-MS purity [1, 3]: >99%

Cyclo-Asp(^DPro-Pro-Val)-NHCH2CH2S—SCH2CH2NH2
step yield ([1]; late stage modification step): 65%
final LC-MS purity [1, 3]: >99%

Cyclo-Asp(^DPro-Pro-Val)-NHCH2CH2S—SCH2CH2NHP(O)(OPh)
step yield ([1]; late stage modification step): 52%
final LC-MS purity [1, 3]: >99%

Cyclo-Asp(^DPro-Pro-Val)-OBn
cyclisation yield ([1]; cyclisation step): yield, 79%
final LC-MS purity ([1]; cyclisation step, LC-MS): 99%

Cyclo-Asp(^DPro-Pro-Val)-OH
step yield ([1]; late stage modification step): yield, 96%
purity (crude or final not stated) [1, 3]: >99%

Cyclo-DAsp(Pro-DPro-Val)-OH
step yield ([1]; late stage modification step): 91%
purity (crude or final not stated) [1, 3]: 97%

Cyclo-^DAsp(Pro-^DPro-Val)-NHCH2CH2CH2CONHOH
step yield ([1]; late stage modification step): 87%
final LC-MS purity [1, 3]: >99%

Cyclo-^DAsp(Pro-^DPro-Val)-NHCH2CH2CH2COOH
step yield ([1]; late stage modification step): 95%
final LC-MS purity [1, 3]: >99%

Cyclo-^DAsp(Pro-^DPro-Val)-NHCH2CH2CH2COOMe
step yield ([1]; late stage modification step): 85%
final LC-MS purity [1, 3]: >98%

Cyclo-^DAsp(Pro-^DPro-Val)-NHCH2CH2CH2S(═O)2CH3
step yield ([1]; late stage modification step): 83%
final LC-MS purity [1, 3]: 99%

Cyclo-^DAsp(Pro-^DPro-Val)-NHCH2CH2CH2SCH3
step yield ([1]; late stage modification step): 70%
final LC-MS purity [1, 3]: 98%

Cyclo-^DAsp(Pro-^DPro-Val)-NHCH2CH2CH2SH
step yield ([1]; late stage modification step): 87%
purity (crude or final not stated) [1, 3]: >99%

Cyclo-^DAsp(Pro-^DPro-Val)-NHCH2CH2SH
step yield ([1]; late stage modification step): 71%
purity (crude or final not stated) [1, 3]: >99%

Cyclo-^DAsp(Pro-^DPro-Val)-NHCH2CH2S—SCH2CH2NH2
step yield ([1]; late stage modification step): 65%
final LC-MS purity [1, 3]: 97%

Cyclo-^DAsp(Pro-^DPro-Val)-OBn
cyclisation yield ([1]; cyclisation step): 73%
final LC-MS purity ([1]; cyclisation step, LC-MS): >99%

Cyclo-^DAsp(^DPro-Pro-Val)-NHCH2CH2CH2CONHOH
step yield ([1]; late stage modification step): 85%
final LC-MS purity [1, 3]: 99%

Cyclo-^DAsp(^DPro-Pro-Val)-NHCH2CH2CH2COOH
step yield ([1]; late stage modification step): 95%
final LC-MS purity [1, 3]: >99%

Cyclo-^DAsp(^DPro-Pro-Val)-NHCH2CH2CH2COOMe
step yield ([1]; late stage modification step): 85%
final LC-MS purity [1, 3]: >99%

Cyclo-^DAsp(^DPro-Pro-Val)-NHCH2CH2CH2OH
step yield ([1]; late stage modification step): 75%
final LC-MS purity [1, 3]: >99%

Cyclo-^DAsp(^DPro-Pro-Val)-NHCH2CH2CH2S(═O)2CH3
step yield ([1]; late stage modification step): 85%
final LC-MS purity [1, 3]: 97%

Cyclo-^DAsp(^DPro-Pro-Val)-NHCH2CH2CH2SCH3
step yield ([1]; late stage modification step): yield, 65%
final LC-MS purity [1, 3]: 98%

Cyclo-^DAsp(^DPro-Pro-Val)-NHCH2CH2CH2SH
step yield ([1]; late stage modification step): yield, 85%
final LC-MS purity [1, 3]: >99%

Cyclo-^DAsp(^DPro-Pro-Val)-NHCH2CH2SH
step yield ([1]; late stage modification step): yield, 80%
final LC-MS purity [1, 3]: >99%

Cyclo-^DAsp(^DPro-Pro-Val)-NHCH2CH2S—SCH2CH2NH2
step yield ([1]; late stage modification step): 67%
final LC-MS purity [1, 3]: 97%

Cyclo-^DAsp(^DPro-Pro-Val)-NHCH2CH2S—SCH2CH2NHP(O)(OPh)
step yield ([1]; late stage modification step): 56%
final LC-MS purity [1, 3]: >99%

Cyclo-^DAsp(^DPro-Pro-Val)-OBn
cyclisation yield ([1]; cyclisation step): yield, 78%
final LC-MS purity ([1]; cyclisation step, LC-MS): 99%

Cyclo-^DAsp(^DPro-Pro-Val)-OH
step yield ([1]; late stage modification step): yield, 94%
purity (crude or final not stated) [1, 3]: >99%

TFA.Acp-Leu-Gly-Lys(Ac)-Cumarin Tetrapeptide
step yield ([1]; late stage modification step): yield: 97%
crude LC-MS purity [1, 3]: >98%

[Cyclo-Asp(Pro-^DPro-Val)-NHCH2CH2CH2S]2
conjugation yield ([1]; conjugation step): 67%
final LC-MS purity ([1]; conjugation step, LC-MS): >99%

[Cyclo-Asp(Pro-^DPro-Val)-NHCH2CH2S]2
conjugation yield ([1]; conjugation step): 77%
final LC-MS purity ([1]; conjugation step, LC-MS): >99%

[Cyclo-Asp(^DPro-Pro-Val)-NHCH2CH2CH2S]2
conjugation yield ([1]; conjugation step): yield, 65%
final LC-MS purity ([1]; conjugation step, LC-MS): >99%

[Cyclo-Asp(^DPro-Pro-Val)-NHCH2CH2S]2
conjugation yield ([1]; conjugation step): yield, 82%
final LC-MS purity ([1]; conjugation step, LC-MS): >99%

[Cyclo-DAsp(Pro-DPro-Val)-NHCH2CH2S]2
conjugation yield ([1]; conjugation step): 73%
final LC-MS purity ([1]; conjugation step, LC-MS): >99%

[Cyclo-^DAsp(Pro-^DPro-Val)-NHCH2CH2CH2S]2
conjugation yield ([1]; conjugation step): 63%
final LC-MS purity ([1]; conjugation step, LC-MS): >99%

[Cyclo-^DAsp(^DPro-Pro-Val)-NHCH2CH2CH2S]2
conjugation yield ([1]; conjugation step): yield, 67%
final LC-MS purity ([1]; conjugation step, LC-MS): 99%

[Cyclo-^DAsp(^DPro-Pro-Val)-NHCH2CH2S]2
conjugation yield ([1]; conjugation step): yield, 78%
final LC-MS purity ([1]; conjugation step, LC-MS): 98%
